Measurements taken from patent publication US20190015494A1.
These are yes or no findings as the source states them, for the method shown. Binding seen in cells or lysates may run through a third protein. Some results given as binding are weak or reduced against the parent protein; the word gives no strength.

Tests used:
[1] = molecular target: HLA B*0702 class I MHC molecule (human); assay: LC-MS/MS of peptides eluted from immunoaffinity-purified class I MHC; Table 4: associated with HLA B*0702
[2] = molecular target: HLA B*0702 class I MHC molecule (human); assay: LC-MS/MS of eluted class I MHC peptides; Table 7: presented by HLA B*0702 on ALL
[3] = molecular target: HLA B*0702 class I MHC molecule (human); assay: LC-MS/MS of peptides eluted from immunoaffinity-purified class I MHC; Table 5: associated with HLA B*0702
[4] = molecular target: HLA B*0702 class I MHC molecule (human); assay: LC-MS/MS of eluted class I MHC peptides; Table 7: presented by HLA B*0702 on ALL, CLL
[5] = molecular target: HLA B*0702 class I MHC molecule (human); assay: LC-MS/MS of eluted class I MHC peptides; Table 7: presented by HLA B*0702 on ALL, CLL, S
[6] = molecular target: HLA B*0702 class I MHC molecule (human); assay: LC-MS/MS of eluted class I MHC peptides; Table 7: presented by HLA B*0702 on CLL
[7] = molecular target: HLA B*0702 class I MHC molecule (human); assay: LC-MS/MS of peptides eluted from immunoaffinity-purified class I MHC; note v of Table 4 (associated with HLA B*0702)
[8] = molecular target: HLA B*0702 class I MHC molecule (human); assay: LC-MS/MS of peptides eluted from immunoaffinity-purified class I MHC; note ix of Table 4 (associated with HLA B*0702)

binding [1] | binding [2] | also measured | Binder
binds |  |  | APPSTSAAAL (O-GlcNAc on T5 and on S6) [APPStsAAAL (SEQ ID NO: 2)]
binds | binds |  | NPVSLPSL (O-GlcNAc on S4) [NPVsLPSL (SEQ ID NO: 27)]
 | binds |  | PPSTSAAAL (note x: T4 or S5 is modified by O-linked hexose-GlcNAc) [PPS(ts)AAAL (SEQ ID NO: 28)]
 | binds | binding [3]: binds | RPPQSSSVSL (O-linked hexose-GlcNAc on S5) [RPPQsSSVSL (hexose-GlcNAc) (SEQ ID NO: 30)]
 | binds |  | RPPSSSQQL (O-GlcNAc, site not assigned: S4, S5 or S6 could be the site) [RPP(sss)QQL (SEQ ID NO: 31)]
binds |  | binding [4]: binds | RPPVTKASSF (O-GlcNAc on T5) [RPPVtKASSF (SEQ ID NO: 32)]
binds |  | binding [5]: binds | RPVTASITTM (O-GlcNAc on T4) [RPVtASITTM (SEQ ID NO: 33)]
binds |  | binding [6]: binds | TPASSRAQTL (O-GlcNAc on S5) [TPASsRAQTL (SEQ ID NO: 34)]
binds |  | binding [4]: binds | TPASSSSAL (O-GlcNAc on S4) [TPAsSSSAL (SEQ ID NO: 35)]
binds | binds |  | TPISQAQKL (O-GlcNAc on S4) [TPIsQAQKL (SEQ ID NO: 36)]
binds |  | binding [4]: binds | APRTNGVAM (O-GlcNAc on T4) [APRtNGVAM (SEQ ID NO: 4)]
binds |  | binding [4]: binds | VPASSTSTL (O-GlcNAc on S4) [VPAsSTSTL (SEQ ID NO: 39)]
binds | binds |  | VPTTSSSL (O-GlcNAc on T4) [VPTtSSSL (SEQ ID NO: 41)]
binds | binds |  | VPVSGTQGL (O-GlcNAc on S4) [VPVsGTQGL (SEQ ID NO: 42)]
binds | binds |  | VPVSNQSSL (O-GlcNAc on S4) [VPVsNQSSL (SEQ ID NO: 43)]
binds | binds |  | VPVSSASEL (O-GlcNAc on S4) [VPVsSASEL (SEQ ID NO: 44)]
binds | binds |  | VPVSVGPSL (O-GlcNAc on S4) [VPVsVGPSL (SEQ ID NO: 45)]
binds | binds |  | APTSAAAL (O-GlcNAc on S4) [APTsAAAL (SEQ ID NO: 5)]
binds |  |  | APTSASNVM (O-GlcNAc on S4) [APTsASNVM (SEQ ID NO: 6)]
binds |  |  | APTSASNVM (O-GlcNAc on S6) [APTSAsNVM (SEQ ID NO: 6)]
binds | binds |  | APVSASASV (O-GlcNAc on S4) [APVsASASV (SEQ ID NO: 7)]
binds |  | binding [4]: binds | APVSSKSSL (O-GlcNAc on S4) [APVsSKSSL (SEQ ID NO: 8)]

binding [1] | binding [2] | also measured | Binder
binds |  |  | EPSSTVVSL (O-GlcNAc on S3) [EPsSTVVSL (SEQ ID NO: 9)]
binds |  |  | EPSSTVVSL (O-GlcNAc on S4) [EPSsTVVSL (SEQ ID NO: 9)]
binds |  |  | EPSSTVVSL (O-GlcNAc on T5) [EPSStVVSL (SEQ ID NO: 9)]
binds | binds |  | HPMSTASQV (O-GlcNAc on S4) [HPMsTASQV (SEQ ID NO: 11)]
binds |  |  | HPSSTASTAL (O-GlcNAc on S3) [HPsSTASTAL (SEQ ID NO: 14)]
binds |  |  | HPSSTASTAL (O-GlcNAc on S4) [HPSsTASTAL (SEQ ID NO: 14)]
binds |  |  | HPSSTASTAL (O-GlcNAc on T5) [HPSStASTAL (SEQ ID NO: 14)]
binds | binds |  | IPISLHTSL (O-GlcNAc on S4) [IPIsLHTSL (SEQ ID NO: 16)]
binds | binds |  | IPTSSVLSL (O-GlcNAc on S4) [IPTsSVLSL (SEQ ID NO: 17)]
binds |  |  | IPVSSHNSL (O-GlcNAc on S4 and on S5) [IPVssHNSL (SEQ ID NO: 19)]
binds |  |  | KPPTSQSSVL (O-GlcNAc on S5) [KPPTsQSSVL (SEQ ID NO: 20)]
binds |  |  | KPPTSQSSVL (O-GlcNAc on T4) [KPPtSQSSVL (SEQ ID NO: 20)]
binds |  |  | LPRNSTMM (O-GlcNAc on S5 and on T6 as printed) [LPRNstMM (SEQ ID NO: 23)]
binds | binds |  | LPTSLPSSL (O-GlcNAc on S4) [LPTsLPSSL (SEQ ID NO: 24)]
binds |  |  | RPPSSSQQL (O-GlcNAc on S4) [RPPsSSQQL (SEQ ID NO: 31)]
binds |  |  | RPPSSSQQL (O-GlcNAc on S5) [RPPSsSQQL (SEQ ID NO: 31)]
binds |  |  | RPPSSSQQL (O-GlcNAc on S6) [RPPSSsQQL (SEQ ID NO: 31)]
binds |  |  | VPTTSSSL (O-GlcNAc on T3) [VPtTSSSL (SEQ ID NO: 41)]
binds |  |  | VPTTSSSL (O-GlcNAc on S5) [VPTTsSSL (SEQ ID NO: 41)]
 |  | binding [7]: binds | IPVSSHNSL (acetyl-GlcNAc on S4) [IPVsSHNSL, acetyl-GlcNAc (S4) form (SEQ ID NO: 19)]
 |  | binding [8]: binds | MPVRPTTNTF (asymmetric di-methyl on R4; hexose-GlcNAc on T7) [MPVRPTtNTF, asymmetric di-methyl (R4) + hexose-GlcNAc (T7) form (SEQ ID NO: 25)]
binds |  |  | APPSTSAAAL (O-GlcNAc on S4) [APPsTSAAAL (SEQ ID NO: 2)]

binding [1] | binding [2] | also measured | Binder
 |  | binding [3]: binds | APPSTSAAAL (hexose-GlcNAc on S6) [APPSTsAAAL (hexose-GlcNAc) (SEQ ID NO: 2)]
 |  | binding [3]: binds | APPSTSAAAL (hexose-GlcNAc on S4) [APPsTSAAAL (hexose-GlcNAc) (SEQ ID NO: 2)]
 |  | binding [3]: binds | APPSTSAAAL (hexose-GlcNAc on T5) [APPStSAAAL (hexose-GlcNAc) (SEQ ID NO: 2)]
 |  | binding [3]: binds | APPSTSAAAL (hexose-GlcNAc on T5; GlcNAc on S6) [APPStsAAAL (hexose-GlcNAc, GlcNAc) (SEQ ID NO: 2)]
 |  | binding [3]: binds | APPSTSAAAL (hexose-GlcNAc on T5 and on S6) [APPStsAAAL (2 hexose-GlcNAc) (SEQ ID NO: 2)]
 |  | binding [3]: binds | APPSTSAAAL (hexose-GlcNAc on S4 and on S6) [APPsTsAAAL (2 hexose-GlcNAc) (SEQ ID NO: 2)]
 |  | binding [3]: binds | APPSTSAAAL (hexose-GlcNAc on S4 and on T5) [APPstSAAAL (2 hexose-GlcNAc) (SEQ ID NO: 2)]
 |  | binding [3]: binds; binding [6]: binds | APRGNVTSL (N-linked hexose-GlcNAc on N5) [APRGnVTSL (hexose-GlcNAc) (SEQ ID NO: 3)]
 |  | binding [3]: binds | IPVSKPLSL (hexose-GlcNAc on S4) [IPVsKPLSL (hexose-GlcNAc) (SEQ ID NO: 18)]
 |  | binding [3]: binds | IPVSSHNSL (hexose-GlcNAc on S4) [IPVsSHNSL (hexose-GlcNAc) (SEQ ID NO: 19)]
binds |  |  | APPSTSAAAL (O-GlcNAc on T5) [APPStSAAAL (SEQ ID NO: 2)]
 |  | binding [3]: binds | KPPTSQSSVL (hexose-GlcNAc on S5 as printed in the sequence; note vi says hexose-GlcNAc (T4)) [KPPTsQSSVL (hexose-GlcNAc) (SEQ ID NO: 20)]
 | binds | binding [3]: binds | KPPVSFFSL (O-linked hexose-GlcNAc on S5) [KPPVsFFSL (hexose-GlcNAc) (SEQ ID NO: 21)]
 |  | binding [3]: binds | PPSTSAAAL (O-linked hexose-GlcNAc on T4) [PPStSAAAL (hexose-GlcNAc) (SEQ ID NO: 28)]
 |  | binding [3]: binds | PPSTSAAAL (O-linked hexose-GlcNAc on S5) [PPSTsAAAL (hexose-GlcNAc) (SEQ ID NO: 28)]
binds |  |  | APPSTSAAAL (O-GlcNAc on S6) [APPSTsAAAL (SEQ ID NO: 2)]
 | binds |  | EPSSTVVSL (O-GlcNAc, site not assigned: S3, S4 or T5 could be the site) [EP(sst)VVSL (SEQ ID NO: 9)]
 | binds |  | HPSSTASTAL (O-GlcNAc, site not assigned: S3, S4 or T5 could be the site) [HP(sst)ASTAL (SEQ ID NO: 14)]
binds |  |  | APPSTSAAAL (O-GlcNAc on S4 and on T5) [APPstSAAAL (SEQ ID NO: 2)]
 | binds |  | LPRNSTMM (O-GlcNAc, site not assigned: S5 or T6 could be the site) [LPRN(st)MM (SEQ ID NO: 23)]
